PMC10647249
No constants are given. Whether binding was seen depends on the method and setting. A result given as binding can be weak or reduced; the word gives no strength. Sequences can lack the tags named with a protein. For some assays here: Binding seen in cells or lysates may run through a third protein. Values belong to the binder of their own block, whether it stands above or below them.

Assays:
[1] = target: OsCIPK9 (yeast two-hybrid fusion) (rice (japonica Nipponbare)); test: two-hybrid; MatchMaker GAL4 Two-Hybrid System, pGADT7 and pGBKT7 constructs co-transformed into yeast AH109; transformants on SD/-Leu/-Trp (DDO), interaction screened on SD/-Leu/-Trp/-His/-Ade (QDO)
[2] = target: OsCIPK9 (split luciferase fusion) (rice); test: split reporter; firefly luciferase complementation imaging (LCI) in N. benthamiana leaf epidermal cells; pCAMBIA-nLUC and pCAMBIA-cLUC constructs delivered by Agrobacterium EHA105; LUC activity imaged with a Nightshade LB 985 system

- binding [1]: binds
B1: OsSOS3 (yeast two-hybrid fusion) (protein, UniProt Q75KU4 1-210)
chain: MGCASSKQFKRPPGYEEPAVLAAQTTFTVNEVEALRELYNKMSYSIIKDGLIHKEEFQLALFRNSRKANLFADRVFDLFDLKRNGVIEFGEFVRSLSVFHPKAPKSEKTAFAFKLYDLRGTGYIEKEELREMVLALLDESDLHLSECAVEAIVDNTFSQADSNGDGRIDPEEWEEFVKANPASLRNMSLPYLQDITMAFPSFVMHSEAHD

- binding [2]: binds
B2: OsSOS3 (split luciferase fusion) (protein, UniProt Q75KU4 1-210)
chain: B1 chain
